No dose or concentration is given here for some results.

In the series the test system is panel of 39 human cultured cancer cell lines. Description: Drug sensitivity test, whole panel: comparison with known compounds (finger print correlation). Type of series: cell-based. Particulars: correlation with exiguolide finger print over the panel.
Consider `COc1cccc2c1C(=O)c1c(O)c3c(c(O)c1C2=O)C[C@@](O)(C(=O)CO)C[C@@H]3O[C@H]1C[C@H](N)[C@H](O[C@@H]2CCCCO2)[C@H](C)O1` [Pirarubicin], for which the “r = Correlation coefficient (correlation of exiguolide sensitivity pattern with known drug)” value is listed as 0.561.

As for `CC(=O)[C@]1(N)Cc2c(O)c3c(c(O)c2[C@@H](O[C@H]2C[C@H](O)[C@H](O)CO2)C1)C(=O)c1ccccc1C3=O` [SM-5887], the “r = Correlation coefficient (correlation of exiguolide sensitivity pattern with known drug)” value was 0.537. In the case of `CO[C@@]12[C@H](COC(N)=O)C3=C(C(=O)C(C)=C(N)C3=O)N1C[C@@H]1N[C@@H]12` [Mitomycin C] it was 0.556.

Source of the values: patent publication US8957228B2, “Macrolide compound having anticancer effect” (Tohoku University, priority 2010, dated 2015).
